# Measured values as given in patent US10545077B2, “Solid phase microextraction coating” (JP SCIENTIFIC LIMITED, priority 2016, dated 2020).
# Read-outs that look alike come from different tables or passages of the source.
# Assays:
# [1] = Analysis of banned drugs in phosphate buffer using PTFE AF2400/HLB fiber and LC-MS/MS
# [2] = SPME direct-immersion extraction at equilibrium from spiked water, GC-MS (fibre constant fc); conditions: PTFE AF 2400/HLB coating; 8 hrs, 35° C., 500 rpm; spiked ultrapure water
# [3] = as above; conditions: DVB/Carboxen/PDMS coating; 8 hrs, 35° C., 500 rpm; spiked ultrapure water
# [4] = Biocompatibility assessment for GC: QC extraction from water after repetitive extractions in matrix and thermal desorption; conditions: relative to amount extracted at the beginning
# [5] = extraction time 30 min, desorption time 30 min, phosphate buffer
compound,measurement,setting,value
CC(=O)Oc1ccc2c3c1O[C@H]1[C@@H](OC(C)=O)C=C[C@H]4[C@@H](C2)N(C)CC[C@@]341 [Heroin],LOQ,[1],0.5 ng/mL
CC1=CCC2CC1C2(C)C (stereo not drawn) [α-Pinene],fc values,[2],8.05
same,fc values,[3],3.77
CC(C)NCC(O)COc1cccc2ccccc12 (centres unmarked) [Propranolol],LOQ,[1]; [5],5.0 ng/mL
C=C1C[C@@H]2[C@H](CC[C@]3(C)C(=O)CC[C@@H]23)[C@@]2(C)C=CC(=O)C=C12 [Exemestane],LOQ,[1]; [5],1.0 ng/mL
CN[C@@H](C)Cc1ccccc1 [Methamphetamine],LOQ,[1],5.0 ng/mL
CC(N)Cc1ccccc1 (centres unmarked) [Amphetamine],LOQ,[1],0.5 ng/mL
CC(=O)c1ccccc1 [Acetophenone],fc values,[2],0.39
same,fc values,[3],0.40
C[C@]12C=CC(=O)C=C1CC[C@@H]1[C@@H]2[C@@H](O)C[C@@]2(C)[C@H]1CC[C@]2(O)C(=O)CO [Prednisolone],LOQ,[1]; [5],5.0 ng/mL
CCCCCCCCCO [1-Nonanol],fc values,[2],4.45
same,fc values,[3],4.51
CCCCC(C#N)(Cn1cncn1)c1ccc(Cl)cc1 (centres unmarked) [Myclobutanyl],% extracted,"[4]; Grape juice, 10th extraction",99 (±3) %
same,% extracted,"[4]; Grape juice, 20th extraction",95 (±2) %
same,% extracted,"[4]; Grape juice, 30th extraction",93 (±4) %
same,% extracted,"[4]; Grape juice, 40th extraction",89 (±4) %
same,% extracted,"[4]; Grape juice, 50th extraction",86 (±4) %
same,% extracted,"[4]; Saliva, 10th extraction",98 (±2) %
same,% extracted,"[4]; Saliva, 20th extraction",93 (±3) %
same,% extracted,"[4]; Saliva, 30th extraction",88 (±1) %
same,% extracted,"[4]; Saliva, 40th extraction",80 (±4) %
same,% extracted,"[4]; Saliva, 50th extraction",80 (±8) %
same,% extracted,"[4]; Serum, 10th extraction",95 (±5) %
same,% extracted,"[4]; Serum, 20th extraction",97 (±5) %
same,% extracted,"[4]; Serum, 30th extraction",87 (±5) %
same,% extracted,"[4]; Serum, 40th extraction",84 (±39%
same,% extracted,"[4]; Serum, 50th extraction",80 (±5) %
same,% extracted,"[4]; Urine, 10th extraction",99 (±8) %
same,% extracted,"[4]; Urine, 20th extraction",96 (±6) %
same,% extracted,"[4]; Urine, 30th extraction",96 (±5) %
same,% extracted,"[4]; Urine, 40th extraction",87 (±10) %
same,% extracted,"[4]; Urine, 50th extraction",80 (±5) %
CCCCC(C)=O [2-Hexanone],fc values,[2],0.13
same,fc values,[3],0.04
CCOC(=O)CC(SP(=S)(OC)OC)C(=O)OCC (centres unmarked) [Malathion],% extracted,"[4]; Grape juice, 10th extraction",99 (±2) %
same,% extracted,"[4]; Grape juice, 20th extraction",96 (±2) %
same,% extracted,"[4]; Grape juice, 30th extraction",90 (±4) %
same,% extracted,"[4]; Grape juice, 40th extraction",90 (±1) %
same,% extracted,"[4]; Grape juice, 50th extraction",88 (±1) %
same,% extracted,"[4]; Saliva, 10th extraction",99 (±5) %
same,% extracted,"[4]; Saliva, 20th extraction",100 (±1) %
same,% extracted,"[4]; Saliva, 30th extraction",94 (±2) %
same,% extracted,"[4]; Saliva, 40th extraction",85 (±2) %
same,% extracted,"[4]; Saliva, 50th extraction",84 (±5) %
same,% extracted,"[4]; Serum, 10th extraction",101 (±6) %
same,% extracted,"[4]; Serum, 20th extraction",98 (±8) %
same,% extracted,"[4]; Serum, 30th extraction",89 (±4) %
same,% extracted,"[4]; Serum, 40th extraction",81 (±1) %
same,% extracted,"[4]; Serum, 50th extraction",80 (±5) %
same,% extracted,"[4]; Urine, 10th extraction",99 (±5) %
same,% extracted,"[4]; Urine, 20th extraction",95 (±3) %
same,% extracted,"[4]; Urine, 30th extraction",93 (±5) %
same,% extracted,"[4]; Urine, 40th extraction",92 (±0.4) %
same,% extracted,"[4]; Urine, 50th extraction",91 (±3) %
C=C(C)[C@H]1CC=C(C)CC1 [Limonene],fc values,[2],0.41
same,fc values,[3],0.79
c1ccccc1 [Benzene],fc values,[2],0.13
same,fc values,[3],0.15
CCCCCc1cc(O)c2c(c1)OC(C)(C)[C@@H]1CCC(C(=O)O)=C[C@@H]21 [11-nor-9-carboxy-D-THC],LOQ,[1]; [5],0.5 ng/mL
CCCCCCCCCC(C)=O [2-Undecanone],fc values,[2],15.72
same,fc values,[3],19.19
CCOP(=S)(OCC)Oc1cc(C)nc(C(C)C)n1 [Diazinon],% extracted,"[4]; Grape juice, 10th extraction",102 (±5) %
same,% extracted,"[4]; Grape juice, 20th extraction",98 (±9) %
same,% extracted,"[4]; Grape juice, 30th extraction",94 (±5) %
same,% extracted,"[4]; Grape juice, 40th extraction",96 (±12) %
same,% extracted,"[4]; Grape juice, 50th extraction",83 (±4) %
same,% extracted,"[4]; Saliva, 10th extraction",99 (±1) %
same,% extracted,"[4]; Saliva, 20th extraction",98 (±2) %
same,% extracted,"[4]; Saliva, 30th extraction",95 (±1) %
same,% extracted,"[4]; Saliva, 40th extraction",90 (±2) %
same,% extracted,"[4]; Saliva, 50th extraction",81 (±7) %
same,% extracted,"[4]; Serum, 10th extraction",100 (±2) %
same,% extracted,"[4]; Serum, 20th extraction",94 (±6) %
same,% extracted,"[4]; Serum, 30th extraction",95 (±5) %
same,% extracted,"[4]; Serum, 40th extraction",92 (±9) %
same,% extracted,"[4]; Serum, 50th extraction",81 (±5) %
same,% extracted,"[4]; Urine, 10th extraction",100 (±2) %
same,% extracted,"[4]; Urine, 20th extraction",98 (±2) %
same,% extracted,"[4]; Urine, 30th extraction",98 (±2) %
same,% extracted,"[4]; Urine, 40th extraction",97 (±2) %
same,% extracted,"[4]; Urine, 50th extraction",94 (±2) %
CCCCCO [1-Pentanol],fc values,[2],0.04
same,fc values,[3],0.01
CC12CCC(CC1)C(C)(C)O2 [Eucalyptol],fc values,[2],0.91
same,fc values,[3],0.20
CCCCCCCCC=O [Nonanal],fc values,[2],3.57
same,fc values,[3],3.78
CC(C)=CCC/C(C)=C\C=O [Neral],fc values,[2],1.63
same,fc values,[3],2.96
